These are yes or no findings as the source states them, for the method shown. Some results given as binding are weak or reduced against the parent protein; the word gives no strength.
biological target: human DLL3 (human) (UniProt Q9NYJ7); test: hybridoma screening: ELISA on immobilized DLL3 or flow cytometry on HEK-293T cells overexpressing hDLL3

By UniProt entry, the sequences of proteins in these tests, tags left out. Where a name states a change or a piece, a line headed by the entry shows the natural chain unless it says otherwise.
UniProt Q9NYJ7: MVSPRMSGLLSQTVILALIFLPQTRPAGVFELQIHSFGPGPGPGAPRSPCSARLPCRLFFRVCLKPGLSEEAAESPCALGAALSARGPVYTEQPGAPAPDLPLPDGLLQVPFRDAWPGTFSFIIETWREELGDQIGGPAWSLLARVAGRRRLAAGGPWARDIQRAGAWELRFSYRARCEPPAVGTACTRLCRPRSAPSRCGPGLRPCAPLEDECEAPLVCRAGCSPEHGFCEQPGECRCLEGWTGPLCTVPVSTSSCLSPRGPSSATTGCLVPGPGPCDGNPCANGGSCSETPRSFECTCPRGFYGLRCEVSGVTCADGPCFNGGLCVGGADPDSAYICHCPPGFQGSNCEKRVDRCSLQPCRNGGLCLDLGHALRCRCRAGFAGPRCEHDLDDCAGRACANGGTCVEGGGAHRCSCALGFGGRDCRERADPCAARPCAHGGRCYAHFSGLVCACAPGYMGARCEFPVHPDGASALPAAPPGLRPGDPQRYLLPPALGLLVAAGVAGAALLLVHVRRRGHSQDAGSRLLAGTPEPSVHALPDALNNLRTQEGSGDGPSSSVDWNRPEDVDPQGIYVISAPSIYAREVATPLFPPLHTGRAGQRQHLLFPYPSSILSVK

Row | binding | Binder
1 | binds | SC16.5 (antibody, V domains shown) VH: QVTLKESGPGILQPSQTLSLTCSFSGFSLSTSGMGVGWIRQPSGEGLEWLADIWWDDNKYYNPSLKSRLTISKDTSSNQVFLKITSVDTADTATYYCARRVNYVYDPYYAMDYWGQGTSVTVSS VL: QIVLTQSPAIMSASPGEKVTMTCSASSSVSYMHWYQQKSGTSPKRWIYDTSKLASGVPARFSGSGSGTSYSLTISSMEAEDAATYYCQQWTRNPLTFGAGTKLELK
2 | binds | SC16.63 (antibody, V domains shown) VH: QVQLQQSGTELLRPGASVKISCKATGYTFSSYWMEWVKQRPGHGLEWIGEILPGSGTTQYNEKFKGKATFTADTSSNTAYMHLSSLTSEDSAVYYCARGTNSLWGQGTLVTVSA VL: QIVLTQSPAIMSASPGEKVTMTCSASSSVSYMYWYQQKSGTSPKRWIYDTSKLASGVPARFSGSGSGTSYSLTISSMEAEDAATYYCQQWSSNPYTFGGGTKLEIK
3 | binds | SC16.80 (antibody, V domains shown) VH: EVQLQQSGPELVKPGGSKKISCKASGYSFTGYSMNWVKQSHGKNLEWIGLINPYSGGTIYNQKFKGKATLTVDKSSSTAYMELLSLTSEDSAVYYCARRSDYPLVYWGQGTLVTVSA VL: ETTVTQSPASLSMAIGEKVTIRCITSTDIDDDMIWYQQKPGEPPKLLISEGNTLRPGVPSRFSSSGYGTDFVFTIENMLSEDVADYYCLKRDDLPYTFGGGTQVEIK
4 | binds | SC16.67 (antibody, V domains shown) VH: EVQLVETGGGLVQPKGSLKLSCAVSAFTFTTYAMNWVRQAPGKGLEWVARIRNKSNNYATYYADSVKDRFTISRDDSQSMLYLQMNNLKIEDTAMYYCVFYYDYVYWGQGTLVTVSA VL: QAVVTQESALTTSPGETVTLTCRSSTGAVTTSNYANWIQEKPDHLFTGLIGGTNNRAPGVPARFSGSLIGDKAALTITGAQTEDEAIYFCGLWYSNHLVFGGGTKLTVL
5 | binds | SC16.49 (antibody, V domains shown) VH: QVQLQQSGPELVKPGTLVKISCKASGYTFTSYDINWVKQRPGQGLEWIGWIYPGDGNTKYSEKFKGKATLTADKSSSTAYMQLTSLTSENSAVYFCARDYDYPFAYWGQGTLVTVSA VL: DIKMTQSPSSMYASLGERVTITCKASQDINSYLSWFQQKPGKSPKTLIYRANRLVDGVPSRFSGSGSGQDYSLTITSLEYEDMGIYYCLQYDEFPLTFGAGTKLELK
6 | binds | SC16.55 (antibody, V domains shown) VH: EVQLVESGGGLVQPKGSLKLSCAVSAFTFTTYAMNWVRQAPGKGLEWVARIRNKSNNYATYYADSVKDRFTISRDDSQSMLYLQMNNLKIEDTAMYYCVFYYDYVYWGQGTLVTVSA VL: DIKMTQSPSSMYASLGERVTITCKASQDINSYLNWFQQKPGKSPKTLIYRANRLVDGVPSRFSGSGSGQDYSLTISSLEYEDMGIYYCLQYDEFPYTFGGGTKLEIK
7 | binds | SC16.78 (antibody, V domains shown) VH: EVKLVESGGGLVKPGGSLKLSCAASGFTFGRYVMSWVRQTPEKKLEWVASITSGGTTYYPDSVKGRFTISRDNARNILYLQMSSLRSEDTAMYYCARVYYHYDDIFAYWGQGTLVTVSA VL: DIKMTQSPSSMYASLGERVTITCKASQDINSYLSWFQQKPGRSPKTLIYRANRLVDGVPSRFSGSGSGQDYSLTISSLDYEDMGIYYCLQYDEFPFTFGSGTKLEIK
8 | binds | SC16.62 (antibody, V domains shown) VH: EVMLVESGGDLVKPGGSLKLSCAASGFTFSSYAMSWVRQTPEKRLEWVAYISGGGDHIYYPDSVRGRFTISRDNAKDTLYLQMSSLRSEDTALYDCARVRDWYFDVWGAGTTVTVSS VL: DIKMTQSPSSMYASLGERVTITCKASQDINSFLSWFQRKPGKSPKTLIYRANRLVDGVPSRFTGSGSGQEFSLTISSLEYEDLGIYYCLQYDEFPYTFGGGTKLEIK
9 | binds | SC16.47 (antibody, V domains shown) VH: EVQLQQSGPELVKPGASVKISCKASGYSFSRFYMHWVKQSPENSLEWIGEINPSTGGTSYNQKFKGKATLTVDKSSSTAYMQLKSLTSEESAVYYCTRGYGSNCYFDVWGAGTTVTVST VL: DVVLTQSPLSLPVNIGDQASISCKSTKSLLNSDGFTYLDWYLQRPGQSPQFLIYLVSNRFSGVPDRFSGSGSGTDFTLKISRVEAEDLGVYYCFQSNYLPLTFGAGTKLELR
10 | binds | SC16.65 (antibody, V domains shown, murine hybridoma mAb) VH: QVTLKESGPGILQPSQTLSLTCSFSGFSLSTSGMGVGWIRQPSGKGLEWLALIWWDDVKRYNPALKSRLTISKDASSSQVFLKIASVDTADTATYYCARIASYDYDVVYAMDYWGQGTSVSVSS VL: QIVLTQSPALMSASPGEKVTMTCSVTSSVSYMYWYQQKPRSSPKPWIYLTSNLASGVPARFSGSGSGTSYSLTISSVEAEDAATYYCQQWRNNPFTFGSGTKVEIK
11 | binds | SC16.73 (antibody, V domains shown) VH: QVQLQQSGAELMKPGASVKISCKANGYTFSSYWIEWLRQRPGHGLEWIGEILPGSDNSNYNEKFKGKATFTADTSSNTAYMQLSSLTSEESAVYYCTRGLRRDGSYYYVMEHWGQGTSVTVSS VL: DIQMTQSPSSLSASLGERVSLTCRASQDIGYSLNWLQQEPDGTIKRLIYATSSLDSGVPKRFSGSRSGSDYSLTISSLESEDFVDYYCLQYASSPWTFGGGTKLEIK
12 | binds | SC16.79 (antibody, V domains shown) VH: EVQLQQSGPELVKPGASVKISCKTSGYTFTEYTMHWVKQSHGKSLEWIGGINPNNGGTSYNQKFKGKATLTVDKSSSTAYMELRSLTSEDSAVYYCARGPAWFAYWGQGTLVTVSA VL: DIVMSQSPSSLAVSAGEKVTMSCKSSQSLLNSRTRKNYLAWYQQKPGQSPKLLIYWASTRESGVPDRFTGSGSGTDFTLTISSVQAEDLAVYYCKQSYNLYTFGGGTKLKIK
13 | binds | SC16.52 (antibody, V domains shown) VH: QVQLKESGPGLVAPSQSLSITCAVSGFSLTSFAIHWFRKPPGKGLEWLGVIWTGGTTNYNSALMSRLSISKDNSKSQVFLKMNSLQTDDTAMYYCARDDYDNNYAMDYWGQGTSVTVSS VL: DIQMIQSPSSMFASLGDRVSLSCRASQGIRGTLDWYQQKPNGTIKLLIYSTSNLNSGVPSRFSGSGSGSDYSLTISSLESEDFADYYCLQRNAYPLTFGAGTKLELK
14 | binds | SC16.58 (antibody, V domains shown) VH: DVQLVESGGGLVQPGGSRKLSCAASGFTFSSFGMHWVRQAPEKGLEWVAYISSGSSNIYYADTVKGRFTISRDNPKNTLFLQMTSLRSEDTAMYYCARGYYGNYDAMDYWGQGTSVTVSS VL: DIQMTQSPASLSSSVGETVTITCRASENIYSYLAWYQQKQGKSPQLLVYNAKTLAEGVPSRFSGSGSGTQFSLKINSLQPEDFGTYYCQHHYDSPLTFGAGTKLELR
15 | binds | SC16.81 (antibody, V domains shown) VH: QVQLKESGPVLVAPSQSLSITCTVSGFSLTSYGVHWVRQPPGKGLEWLGVIWAGGSTNYNSALMSRLSISKDNSKSQVFLKMNSLQTDDTAMYYCAKQGNFYAMDYWGQGTSVTVSS VL: QIVLTQSPAIMSASLGERVTLTCTASSSVSSSYLHWYQQKPGSSPKLWIYSTSNLASGVPTRFSGSGSGTSYSLRISSMEAEDAATYYCHQYNRSPLTFGAGTKLELK
16 | binds | SC16.84 (antibody, V domains shown) VH: EVQLQQSGPELVKPGASMKISCKASGYSFTGYTMNWVKQSHGKNLEWIGLINPYNGGTTYNQKFKGKATLTVDKSSSTAYMELLSLTSEDSAVYYCALGYYGNYRRYFDVWGAGTTVTVSS VL: DIQMTQSPSSLSASLGGKVTITCKASQDIKKYIAWYQHKPGKGPRLLIHYTSTLEPGIPSRFSGSGSGRDYSFSISNLEPEDIATYYCLQYDILWTFGGGTKLEIK
17 | binds | SC16.72 (antibody, V domains shown) VH: EVQLQQSGPELVKPGASVKMSCKASGYTFTSYVMHWVKQKPGQGLEWIGYINPYNDGTKYNEKFKGKATLTSDKSSSTAYMELSSLTSEDSAVYYCARLRSRAMDYWGQGTSVTVSS VL: ENVLTQSPAIMSASLGEKVTMSCRASSSVNYMSWYQQKSDASPKLWIYYTSNLAPGVPARFSGSGSGNSYSLTISSMEGEDAATYYCQQFTSSPYTFGGGTKLEIK
18 | binds | SC16.42 (antibody, V domains shown) VH: QIQLVQSGPELKKPGETVKISCKASGYTFTTAGMQWVQKMPGKGFKWIGWINTHSGEPKYADDFKGRFAFSLETSASTAYLQISNLKDEDTATFFCAPLWSDSSFAYWGQGTLVTVSA VL: DVLMTQSPLSLSVSLGDQASISCRSSQNIVHSDRYTYLEWYLQKPGQSPKLLIYGVSNRFSGVPDRFSGSGSGTDFTLKISRVEAEDMGVYYCFQGTHVPYTFGGGTKLEIK
19 | binds | SC16.61 (antibody, V domains shown) VH: EVLLQRSGPDLVKPGASVTIPCKASGYTFTDYNMDWVKQSHGKSLEWIGNINTYNGGTIYNQKFKGKATLTVDKPSSTAYMELRSLTSEDTAVYYCARRLRYGGHYFDYWGQGTALTVSS VL: DIVMTQSTSSLAMSVGQKVTMSCKSSQSLLNSSNQKNYLAWYQQEPGQSPKLLVSFASTRESGVPDRFTGSGSGTDFTLTISGVQAEDLAVYYCQQHYSIPLTFGAGTKLELK
20 | binds | SC16.57 (antibody, V domains shown) VH: EVKLVESGGDLVKPGGSLKLSCAASGFAFSSYDMSWVRQTPEKRLEWVATISSGGSYTYYPDSVKGRFTISRDNVRDTLYLQMSSLRSEDTALYYCARQAIGTYFDYWGQGTTLTVSS VL: DIVMTQSHKFMSISVGDRVSITCKASQDVSIFVAWYQQKPGQSPKLLIYSASYRYTGVPDRFTGSGSGTDFIFTISSVQAEDLAVYYCQQHYGTPFTFGSGTKLKIR
21 | binds | SC16.45 (antibody, V domains shown) VH: QVQLQQSGADLVRPGTSVKVSCKASGYSFTNYLIEWVKQRPGQGLEWIGVINPGSGGTHYNEKFKDKAVLTADKSSTTAHMQLSSLTSDDSAVYFCARSPYDYNDGAMDYWGQGTSVTVSS VL: EIQMTQSPSSMSASLGDRITITCQATQDIVKNLNWYQQKPGKPPSFLIYYATELAEGVPARFSGSGSGSDYSLTISNLESEDFADYHCLQFYEFPFTFGAGTKLELK
22 | binds | SC16.56 (antibody, V domains shown, murine hybridoma mAb) VH: QIQLVQSGPELKKPGETVKISCKASGYTFTNYGMNWVKQAPGKGLKWMAWINTYTGEPTYADDFKGRFAFSLETSASTASLQIINLKNEDTATYFCARIGDSSPSDYWGQGTTLTVSS VL: SIVMTQTPKFLLVSAGDRVTITCKASQSVSNDVVWYQQKPGQSPKLLIYYASNRYTGVPDRFAGSGYGTDFSFTISTVQAEDLAVYFCQQDYTSPWTFGGGTKLEIR

Source: patent US20180243435A1 (AbbVie / Abbott, published 2018)
